The list does not hold the whole screen: it is rich in T/C values a quarter to a half above the control, in often repeated tests (any T/C) and in doses without a T/C. Further doses and runs are listed elsewhere. T/C: endpoint of the treated group in % of that of the vehicle group. Some entries give survivors of the animals treated and no T/C: the source holds a T/C of zero for them, seemingly a mark for toxic or unscored doses. Some doses without a T/C left all or most animals alive at the check, yet need not have been tolerated: survival well below the control is almost never listed, so the zero probably covers shortened survival too. Survivors were counted at the toxicity check, usually on the fifth day, unless a day is given; later deaths do not show. Schedules are NCI's codes, taken here to give the interval after Q, in days (D) or hours (H), and the number of doses after X. For survival time, this PubChem deposit counts one and a half times the control or more as active, and values a quarter to a half above the control carry no call in these data; other NCI protocols may use other cut-offs. Some doses were run more than once; the values are given in rising order.
Test system: BDF1 mice, P388 leukemia ip, median survival T/C
Test: NCI In Vivo Anticancer Drug Screen. Data for tumor model P388 Leukemia (intraperitoneal) in B6D2F1 (BDF1) mice
Details: T/C endpoint: median survival time, higher T/C = longer survival
Summary of the method: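 Transplantable tumour in mice; compound vs vehicle dosing; survival scored; ratio of treated to control reported.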

[1] = dose: 400.0 mg/kg/injection, schedule: Q04DX003 (ip), vehicle: saline with Tween-80
[2] = dose: 50.0 mg/kg/injection, schedule: Q01DX009 (ip), vehicle: saline with Tween-80
[3] = dose: 100.0 mg/kg/injection, schedule: Q01DX009 (ip), vehicle: saline with Tween-80
[4] = dose: 200.0 mg/kg/injection, schedule: Q01DX009 (ip), vehicle: saline with Tween-80
[5] = dose: 30.0 mg/kg/injection, schedule: Q01DX009 (ip), vehicle: saline with Tween-80
[6] = dose: 60.0 mg/kg/injection, schedule: Q01DX009 (ip), vehicle: saline with Tween-80

## CCOC(=O)CC(COC)C(C(=O)OCC)C(=O)OCC (centres undefined)
dose: 400.0 mg/kg/injection, schedule: Q01DX009 (ip), vehicle: other
  survivor count: 6 of 6

## c1cnc2sccc2c1
[1]
  survivor count: 0 of 6

## CCOP(=S)(N1CC1(C)C)N1CC1(C)C (centres undefined)
[1]
  survivor count: 0 of 6
dose: 600.0 mg/kg/injection, schedule: Q04DX003 (ip), vehicle: saline with Tween-80
  survivor count: 0 of 6

## COc1ccc(-c2cc(=O)c3ccc4cc(OC)c(OC)cc4c3o2)cc1
dose: 25.0 mg/kg/injection, schedule: Q01DX009 (ip), vehicle: distilled water + Tween-80
  survivor count: 6 of 6

## C=CCn1cnc2c(=S)nc[nH]c21
[2]
  survivor count: 6 of 6
[3]
  survivor count: 6 of 6
[4]
  survivor count: 6 of 6

## Cc1ccc2c(ccc(/C=C/c3ccc(O)c4ncccc34)[n+]2C)c1
dose: 150.0 mg/kg/injection, schedule: Q01DX009 (ip), vehicle: Klucel (hydroxypropylcellulose) (HPC)
  survivor count: 1 of 6
dose: 300.0 mg/kg/injection, schedule: Q01DX009 (ip), vehicle: Klucel (hydroxypropylcellulose) (HPC)
  survivor count: 1 of 6

## Nc1cccnc1
dose: 20.0 mg/kg/injection, schedule: Q01DX009 (ip), vehicle: saline
  survivor count: 3 of 6

## Nc1ccc(CCc2ccc(Cl)cc2S(=O)(=O)F)c(Cl)c1
dose: 400.0 mg/kg/injection, schedule: Q01DX009 (ip), vehicle: saline
  survivor count: 4 of 6

## CCCCNC(C)(C)CSSSCC(C)(C)NCCCC
dose: 12.5 mg/kg/injection, schedule: Q01DX009 (ip), vehicle: other
  survivor count: 5 of 6
dose: 25.0 mg/kg/injection, schedule: Q01DX009 (ip), vehicle: other
  T/C: 143 % of control
dose: 50.0 mg/kg/injection, schedule: Q01DX009 (ip), vehicle: other
  survivor count: 5 of 6
dose: 100.0 mg/kg/injection, schedule: Q01DX009 (ip), vehicle: other
  survivor count: 2 of 6

## Cc1ccc(-c2cc(C)n(C)[n+]2C)cc1
[2]
  survivor count: 0 of 6

## O=C1NNC2CCCCC2O1 (centres undefined)
[4]
  survivor count: 6 of 6

## CC1CN1P(=S)(N1CCCC1)N1CC1C (centres undefined)
[4]
  survivor count: 6 of 6

## C[C@@H]1CC2=CC(=O)CC[C@@H]2[C@H]2CC[C@@]3(C)[C@@H](CC[C@]3(C)O)[C@@H]21
dose: 200.0 mg/kg/injection, schedule: Q04DX003 (ip), vehicle: saline with Tween-80
  survivor count: 6 of 6
dose: 400.0 mg/kg/injection, schedule: Q01DX009 (ip), vehicle: saline with Tween-80
  survivor count: 4 of 6
[1]
  survivor count: 2 of 6

## CCOc1ccc(S(=O)(=O)c2ccc(C)cc2)c2c1no[n+]2[O-]
[5]
  survivor count: 7 of 7
[6]
  survivor count: 7 of 7

## O=C(Nc1cccc(C(F)(F)F)c1)Nc1nccs1
dose: 400.0 mg/kg/injection, schedule: Q01DX009 (ip), vehicle: Klucel (hydroxypropylcellulose) (HPC)
  survivor count: 0 of 6

## O=[N+]([O-])c1ccc(Cl)c2nonc12
[5]
  survivor count: 3 of 7
[6]
  survivor count: 0 of 7

## O=C1C(NC(=O)C2CCCCC2)=C(N2CC2)C(=O)C(NC(=O)C2CCCCC2)=C1N1CC1
dose: 25.0 mg/kg/injection, schedule: Q01DX009 (ip), vehicle: Klucel (hydroxypropylcellulose) (HPC)
  T/C: 125 % of control
dose: 25.0 mg/kg/injection, schedule: Q01DX010 (ip), vehicle: saline
  T/C: 136 % of control
dose: 50.0 mg/kg/injection, schedule: Q01DX009 (ip), vehicle: Klucel (hydroxypropylcellulose) (HPC)
  T/C: 129 and 146 % of control
dose: 50.0 mg/kg/injection, schedule: Q01DX010 (ip), vehicle: saline
  T/C: 140 % of control
dose: 100.0 mg/kg/injection, schedule: Q01DX009 (ip), vehicle: Klucel (hydroxypropylcellulose) (HPC)
  T/C: 144 % of control

## CC(C)(O)c1cnc(OCc2ccccc2)nc1OCc1ccccc1
dose: 100.0 mg/kg/injection, schedule: Q04DX003 (ip), vehicle: Klucel (hydroxypropylcellulose) (HPC)
  survivor count: 6 of 6
dose: 200.0 mg/kg/injection, schedule: Q04DX003 (ip), vehicle: Klucel (hydroxypropylcellulose) (HPC)
  survivor count: 6 of 6
dose: 400.0 mg/kg/injection, schedule: Q04DX003 (ip), vehicle: Klucel (hydroxypropylcellulose) (HPC)
  survivor count: 6 of 6

## O=[N+]([O-])c1ccc(C2=C[P+](c3ccccc3)(c3ccccc3)C=C(c3ccccc3)O2)cc1
dose: 50.0 mg/kg/injection, schedule: Q01DX005 (ip), vehicle: saline with Tween-80
  survivor count: 0 of 5
dose: 100.0 mg/kg/injection, schedule: Q01DX005 (ip), vehicle: saline with Tween-80
  survivor count: 0 of 5
dose: 200.0 mg/kg/injection, schedule: Q01DX005 (ip), vehicle: saline with Tween-80
  survivor count: 0 of 5

## CCCP(CCC)c1ccccc1
dose: 100.0 mg/kg/injection, schedule: Q01DX009 (sc), vehicle: olive oil, sesame oil, peanut oil
  survivor count: 6 of 6
dose: 200.0 mg/kg/injection, schedule: Q01DX009 (sc), vehicle: olive oil, sesame oil, peanut oil
  survivor count: 6 of 6

## N=P(N[P+](N)(c1ccccc1)c1ccccc1)(c1ccccc1)c1ccccc1
dose: 12.5 mg/kg/injection, schedule: Q01DX001 (ip), vehicle: saline
  T/C: 132 % of control
dose: 50.0 mg/kg/injection, schedule: Q01DX001 (ip), vehicle: saline
  survivor count: 1 of 6

## O=C(CC(=O)C(F)(F)F)c1ccc2c(c1)Cc1ccccc1-2
[1]
  survivor count: 3 of 6

## Nc1nc(N)c2cc(S(=O)(=O)c3ccccc3)ccc2n1
[3]
  T/C: 148 % of control
[4]
  T/C: 148 % of control

## O=C(CN1CCCCC1)c1ccc2c(c1)Cc1cc(C(=O)CN3CCCCC3)ccc1O2
[4]
  survivor count: 3 of 6

## Oc1c(Cl)cc(Cl)cc1C1N2CCCCC2C2c3cccn3-c3ccccc3N21 (centres undefined)
dose: 200.0 mg/kg/injection, schedule: Q01DX009 (ip), vehicle: Klucel (hydroxypropylcellulose) (HPC)
  survivor count: 6 of 6

## CCOC(=S)N/N=C(\C)CC
dose: 10.0 mg/kg/injection, schedule: Q01DX009 (ip), vehicle: saline with Tween-80
  survivor count: 0 of 6

## COc1ncnc2c1c(C#N)cn2C1OC(CO)C(O)C1O (centres undefined)
dose: 100.0 mg/kg/injection, schedule: Q01DX009 (ip), vehicle: saline
  survivor count: 1 of 6

From PubChem BioAssay AID328 (DTP/NCI, 2004)
